Laboratory results from publication PMC12493166, “The ClpA chaperone and the two adaptor proteins modulate the fate of the model substrate tagged with a SsrA-degron of Leptospira” (Biochemical Journal, 2025).
Results are given in words; binding and its absence hold for the method and conditions named. Binding can be weak; no strength is given.

Columns and labels:
[1] = biological target: T1, LinClpP2 (ClpP2 isoform of the Clp protease of Leptospira interrogans) (L. interrogans) (UniProt Q72R01); assay: ELISA; LinClpA–LinClpP (1 μM) in the presence and absence of nucleotides (2 mM: ATP, CTP, GTP and UTP); Supplementary Figure S5B; both purified
T1 sequence: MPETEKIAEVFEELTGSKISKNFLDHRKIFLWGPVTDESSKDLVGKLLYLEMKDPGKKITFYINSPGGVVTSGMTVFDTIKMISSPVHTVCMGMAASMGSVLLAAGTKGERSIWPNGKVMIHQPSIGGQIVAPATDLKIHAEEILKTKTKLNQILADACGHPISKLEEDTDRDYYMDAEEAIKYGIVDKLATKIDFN

[2] = biological target: T2, LinClpS2 (Clp adaptor protein ClpS2 of Leptospira interrogans) (L. interrogans serovar Copenhageni strain Fiocruz L1-130) (UniProt Q72RD1); assay: ELISA; LinClpP1, LinClpP2, LinClpS1 or LinClpS2 (1 μM/well) coated overnight at 4°C; blocked with 3% BSA in PBS; ATP-bound LinClpA or LinClpA^∆N (0–3 μM) overlaid 2 hours at 37°C; detected with mouse anti-LinClpA; Kd by Hill plot analysis; both purified
T2 sequence: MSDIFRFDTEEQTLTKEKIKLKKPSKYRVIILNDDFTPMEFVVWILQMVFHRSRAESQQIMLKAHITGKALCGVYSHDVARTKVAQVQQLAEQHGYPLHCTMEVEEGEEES

LinClpA (ClpA ATPase chaperone of Leptospira interrogans) (enzyme)
binding [1]: binds

LinClpA^∆N (N-domain-deleted variant of LinClpA) (domain or fragment)
binding [2]: binds
